In the supplement of paper PMC6411743:
± gives the standard deviation of the averaged measurements. Only a part is listed here, and it is no random draw. Small differences around the control level are noise.

Amino acid sequences for entries named in this document (tags omitted). A change or cut given only in a name is not applied to a line headed by its entry.
UniProt Q15750: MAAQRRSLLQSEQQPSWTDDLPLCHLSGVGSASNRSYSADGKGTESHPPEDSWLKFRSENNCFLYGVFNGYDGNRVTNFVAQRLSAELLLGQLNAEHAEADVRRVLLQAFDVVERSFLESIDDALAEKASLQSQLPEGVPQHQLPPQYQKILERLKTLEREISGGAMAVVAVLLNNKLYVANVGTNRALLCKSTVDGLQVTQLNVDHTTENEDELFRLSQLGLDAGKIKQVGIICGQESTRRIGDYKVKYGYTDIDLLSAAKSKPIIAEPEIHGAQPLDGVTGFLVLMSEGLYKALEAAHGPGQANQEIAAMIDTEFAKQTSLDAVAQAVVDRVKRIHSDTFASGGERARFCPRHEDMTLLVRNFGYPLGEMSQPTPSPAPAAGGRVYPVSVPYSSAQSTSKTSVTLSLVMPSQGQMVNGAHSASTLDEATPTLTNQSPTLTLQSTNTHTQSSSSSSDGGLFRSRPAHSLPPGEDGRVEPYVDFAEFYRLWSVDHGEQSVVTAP
UniProt Q3ZCW2: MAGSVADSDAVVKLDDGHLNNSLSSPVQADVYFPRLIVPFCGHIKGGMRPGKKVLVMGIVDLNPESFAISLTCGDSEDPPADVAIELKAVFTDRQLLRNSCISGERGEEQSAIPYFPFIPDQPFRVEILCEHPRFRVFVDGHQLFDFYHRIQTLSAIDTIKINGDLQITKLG
UniProt Q15633: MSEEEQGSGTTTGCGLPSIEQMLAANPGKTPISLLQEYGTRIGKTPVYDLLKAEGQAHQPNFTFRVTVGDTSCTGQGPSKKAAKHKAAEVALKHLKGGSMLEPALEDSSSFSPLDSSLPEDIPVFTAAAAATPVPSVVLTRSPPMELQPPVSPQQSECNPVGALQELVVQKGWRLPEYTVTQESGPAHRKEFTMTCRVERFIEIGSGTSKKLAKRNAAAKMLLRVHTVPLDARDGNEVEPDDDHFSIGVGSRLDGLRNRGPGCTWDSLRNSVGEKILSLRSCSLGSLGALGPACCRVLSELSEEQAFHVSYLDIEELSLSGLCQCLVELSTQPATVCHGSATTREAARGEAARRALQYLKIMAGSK
UniProt Q16659, whole entry: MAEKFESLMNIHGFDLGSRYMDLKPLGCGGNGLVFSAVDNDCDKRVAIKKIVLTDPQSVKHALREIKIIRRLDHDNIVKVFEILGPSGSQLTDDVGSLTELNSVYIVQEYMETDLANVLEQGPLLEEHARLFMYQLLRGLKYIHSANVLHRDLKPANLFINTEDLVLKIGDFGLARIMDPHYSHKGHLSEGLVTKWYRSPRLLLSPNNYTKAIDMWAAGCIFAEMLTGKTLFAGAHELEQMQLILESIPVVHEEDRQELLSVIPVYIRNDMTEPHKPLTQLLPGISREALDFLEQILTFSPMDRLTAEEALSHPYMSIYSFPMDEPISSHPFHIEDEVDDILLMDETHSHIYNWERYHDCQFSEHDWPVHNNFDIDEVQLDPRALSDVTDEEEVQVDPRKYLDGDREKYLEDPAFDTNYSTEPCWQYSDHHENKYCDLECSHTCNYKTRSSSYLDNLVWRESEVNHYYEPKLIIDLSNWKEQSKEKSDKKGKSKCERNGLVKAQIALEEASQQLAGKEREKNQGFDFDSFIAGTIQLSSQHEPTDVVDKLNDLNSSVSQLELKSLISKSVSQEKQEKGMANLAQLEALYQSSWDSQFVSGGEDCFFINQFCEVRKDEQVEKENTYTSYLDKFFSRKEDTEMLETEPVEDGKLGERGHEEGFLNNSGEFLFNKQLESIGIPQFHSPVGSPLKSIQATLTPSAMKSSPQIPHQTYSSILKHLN
UniProt Q8NDD1: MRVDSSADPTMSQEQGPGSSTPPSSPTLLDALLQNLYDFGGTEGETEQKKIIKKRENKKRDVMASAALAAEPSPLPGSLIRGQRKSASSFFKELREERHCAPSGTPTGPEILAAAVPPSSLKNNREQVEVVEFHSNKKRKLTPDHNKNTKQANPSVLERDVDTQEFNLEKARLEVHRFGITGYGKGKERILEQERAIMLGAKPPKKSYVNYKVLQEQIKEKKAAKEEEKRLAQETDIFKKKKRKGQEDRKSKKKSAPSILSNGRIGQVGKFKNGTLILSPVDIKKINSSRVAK
UniProt Q3MIT2: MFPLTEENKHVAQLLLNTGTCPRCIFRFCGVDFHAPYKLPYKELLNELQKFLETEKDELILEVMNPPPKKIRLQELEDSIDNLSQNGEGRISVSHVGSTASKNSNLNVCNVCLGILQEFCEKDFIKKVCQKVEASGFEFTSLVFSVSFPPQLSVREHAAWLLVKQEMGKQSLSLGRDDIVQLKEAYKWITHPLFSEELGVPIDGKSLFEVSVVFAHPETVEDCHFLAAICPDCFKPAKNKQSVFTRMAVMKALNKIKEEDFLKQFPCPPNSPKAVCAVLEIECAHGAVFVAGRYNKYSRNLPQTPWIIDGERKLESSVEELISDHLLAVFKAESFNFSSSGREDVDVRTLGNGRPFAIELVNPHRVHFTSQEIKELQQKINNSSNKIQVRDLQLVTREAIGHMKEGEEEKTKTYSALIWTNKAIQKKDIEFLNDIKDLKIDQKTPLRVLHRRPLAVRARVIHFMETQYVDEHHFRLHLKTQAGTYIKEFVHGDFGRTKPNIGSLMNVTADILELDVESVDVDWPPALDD
UniProt Q15223: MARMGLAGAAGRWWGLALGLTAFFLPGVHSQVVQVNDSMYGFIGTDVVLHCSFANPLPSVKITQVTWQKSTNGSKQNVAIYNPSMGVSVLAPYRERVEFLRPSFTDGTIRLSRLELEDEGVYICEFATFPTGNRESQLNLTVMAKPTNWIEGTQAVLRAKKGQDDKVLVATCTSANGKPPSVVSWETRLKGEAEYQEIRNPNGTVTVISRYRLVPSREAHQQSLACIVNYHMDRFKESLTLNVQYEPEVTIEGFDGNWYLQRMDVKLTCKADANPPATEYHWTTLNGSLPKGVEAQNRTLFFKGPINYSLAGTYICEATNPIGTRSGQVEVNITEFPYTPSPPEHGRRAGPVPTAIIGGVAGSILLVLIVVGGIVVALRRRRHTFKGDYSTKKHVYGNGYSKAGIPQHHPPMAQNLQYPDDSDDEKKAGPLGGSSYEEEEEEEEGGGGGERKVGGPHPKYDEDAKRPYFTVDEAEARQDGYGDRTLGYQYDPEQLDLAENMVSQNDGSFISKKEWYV
UniProt Q5K651: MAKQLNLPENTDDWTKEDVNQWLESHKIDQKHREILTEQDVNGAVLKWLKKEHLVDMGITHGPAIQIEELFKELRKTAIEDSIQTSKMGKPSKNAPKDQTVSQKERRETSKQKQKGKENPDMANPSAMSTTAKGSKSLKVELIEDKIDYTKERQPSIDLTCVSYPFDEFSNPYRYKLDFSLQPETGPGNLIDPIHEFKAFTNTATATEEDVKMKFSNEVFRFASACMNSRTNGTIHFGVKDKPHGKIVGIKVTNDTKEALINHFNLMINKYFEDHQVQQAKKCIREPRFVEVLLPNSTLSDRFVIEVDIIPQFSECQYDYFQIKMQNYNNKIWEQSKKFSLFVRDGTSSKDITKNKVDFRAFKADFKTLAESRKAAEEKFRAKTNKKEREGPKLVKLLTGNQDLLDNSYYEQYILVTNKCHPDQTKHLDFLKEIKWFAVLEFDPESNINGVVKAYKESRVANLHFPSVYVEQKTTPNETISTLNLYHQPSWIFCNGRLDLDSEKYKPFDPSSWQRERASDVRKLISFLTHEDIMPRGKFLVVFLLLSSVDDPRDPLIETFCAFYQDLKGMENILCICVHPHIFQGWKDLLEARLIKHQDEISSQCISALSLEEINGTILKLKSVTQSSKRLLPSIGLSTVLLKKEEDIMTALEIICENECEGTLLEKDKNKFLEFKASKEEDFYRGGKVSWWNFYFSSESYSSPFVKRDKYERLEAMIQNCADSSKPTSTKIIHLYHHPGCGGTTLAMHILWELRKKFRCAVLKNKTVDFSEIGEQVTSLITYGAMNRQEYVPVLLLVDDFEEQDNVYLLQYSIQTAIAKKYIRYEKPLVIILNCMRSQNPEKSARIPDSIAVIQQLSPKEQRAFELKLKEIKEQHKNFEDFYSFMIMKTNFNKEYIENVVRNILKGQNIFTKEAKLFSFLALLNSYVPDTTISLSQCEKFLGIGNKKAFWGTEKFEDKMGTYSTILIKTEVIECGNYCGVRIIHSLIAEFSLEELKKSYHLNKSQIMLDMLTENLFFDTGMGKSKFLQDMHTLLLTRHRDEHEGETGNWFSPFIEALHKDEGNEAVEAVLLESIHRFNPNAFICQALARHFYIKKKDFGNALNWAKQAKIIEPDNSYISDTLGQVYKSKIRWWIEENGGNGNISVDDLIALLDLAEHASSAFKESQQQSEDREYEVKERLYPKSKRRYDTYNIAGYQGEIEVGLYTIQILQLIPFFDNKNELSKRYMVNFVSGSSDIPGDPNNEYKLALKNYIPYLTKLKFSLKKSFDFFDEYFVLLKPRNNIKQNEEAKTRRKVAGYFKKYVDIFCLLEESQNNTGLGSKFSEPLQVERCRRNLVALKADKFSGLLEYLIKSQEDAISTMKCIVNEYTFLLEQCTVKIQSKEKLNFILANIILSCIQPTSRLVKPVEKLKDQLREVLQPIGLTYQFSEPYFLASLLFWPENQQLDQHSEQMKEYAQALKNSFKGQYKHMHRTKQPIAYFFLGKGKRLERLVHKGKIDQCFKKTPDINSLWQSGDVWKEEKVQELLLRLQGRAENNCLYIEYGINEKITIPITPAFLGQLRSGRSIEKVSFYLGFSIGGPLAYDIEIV
UniProt Q16611: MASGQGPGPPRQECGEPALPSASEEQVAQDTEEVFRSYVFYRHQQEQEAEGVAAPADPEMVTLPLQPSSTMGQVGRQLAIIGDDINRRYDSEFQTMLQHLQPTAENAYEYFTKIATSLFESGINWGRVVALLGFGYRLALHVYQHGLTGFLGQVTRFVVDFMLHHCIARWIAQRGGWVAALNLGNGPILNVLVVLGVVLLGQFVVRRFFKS
UniProt Q3KRA6: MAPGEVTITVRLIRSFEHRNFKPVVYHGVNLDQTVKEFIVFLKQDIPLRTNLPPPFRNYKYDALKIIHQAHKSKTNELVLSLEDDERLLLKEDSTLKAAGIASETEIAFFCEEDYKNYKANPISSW
UniProt Q5TKA1: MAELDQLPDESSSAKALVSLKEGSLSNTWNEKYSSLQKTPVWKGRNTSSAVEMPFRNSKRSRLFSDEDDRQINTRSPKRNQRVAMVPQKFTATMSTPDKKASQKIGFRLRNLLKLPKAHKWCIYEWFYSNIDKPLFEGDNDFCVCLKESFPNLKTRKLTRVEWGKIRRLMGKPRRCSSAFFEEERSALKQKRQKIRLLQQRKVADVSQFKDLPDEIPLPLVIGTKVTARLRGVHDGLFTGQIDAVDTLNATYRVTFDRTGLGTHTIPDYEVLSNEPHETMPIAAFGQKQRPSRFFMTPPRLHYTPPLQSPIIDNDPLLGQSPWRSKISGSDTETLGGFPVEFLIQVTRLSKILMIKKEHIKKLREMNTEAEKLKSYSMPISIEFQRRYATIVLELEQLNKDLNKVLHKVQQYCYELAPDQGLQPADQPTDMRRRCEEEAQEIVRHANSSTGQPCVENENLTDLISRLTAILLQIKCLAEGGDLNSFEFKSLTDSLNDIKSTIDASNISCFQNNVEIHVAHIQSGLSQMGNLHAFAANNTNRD
UniProt Q59H18: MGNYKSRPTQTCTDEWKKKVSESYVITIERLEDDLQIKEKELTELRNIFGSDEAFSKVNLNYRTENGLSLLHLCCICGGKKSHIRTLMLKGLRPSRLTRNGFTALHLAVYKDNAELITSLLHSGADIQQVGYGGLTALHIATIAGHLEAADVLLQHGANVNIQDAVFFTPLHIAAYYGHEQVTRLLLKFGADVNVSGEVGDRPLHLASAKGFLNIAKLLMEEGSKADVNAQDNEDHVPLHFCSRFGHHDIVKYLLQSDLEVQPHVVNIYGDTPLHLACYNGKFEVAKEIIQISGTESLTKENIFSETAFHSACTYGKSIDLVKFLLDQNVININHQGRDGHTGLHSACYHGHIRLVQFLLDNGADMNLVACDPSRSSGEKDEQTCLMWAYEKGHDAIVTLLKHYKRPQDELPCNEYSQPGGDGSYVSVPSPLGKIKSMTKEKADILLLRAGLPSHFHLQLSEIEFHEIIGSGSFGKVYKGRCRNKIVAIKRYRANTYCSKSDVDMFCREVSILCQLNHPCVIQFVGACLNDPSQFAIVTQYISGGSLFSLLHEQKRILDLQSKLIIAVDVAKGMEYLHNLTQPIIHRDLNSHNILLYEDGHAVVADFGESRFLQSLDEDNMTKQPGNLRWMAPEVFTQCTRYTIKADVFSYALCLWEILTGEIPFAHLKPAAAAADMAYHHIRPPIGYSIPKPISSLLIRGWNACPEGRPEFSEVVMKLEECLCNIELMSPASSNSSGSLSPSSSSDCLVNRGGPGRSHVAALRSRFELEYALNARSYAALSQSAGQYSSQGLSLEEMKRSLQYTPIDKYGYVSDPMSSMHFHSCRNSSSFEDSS

Compound: Nc1ncnc2c1ncn2[C@@H]1O[C@H](COP(=O)(O)OP(=O)(O)NP(=O)(O)O)[C@@H](O)[C@H]1O [adenylyl imidodiphosphate]
Assay: NP40-soluble protein abundance relative to vehicle (solubility fold change) (ratio); higher = more soluble protein in presence of AMP-PNP
In short: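 In three independent experiments, Jurkat crude lysate made by Dounce homogenisation was treated for 10 min at room temperature and then 3 min at 37 °C with eight concentrations ranging from 0.1 to 10 mM. It was then solubilised with 0.8% NP40 plus benzonase for 60 min at 4 °C and ultracentrifuged. The supernatant was TMT-labelled for LC-MS/MS, and each value is the fold change against the detergent-processed vehicle for the same replicate, using vsn-normalised intensities.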

Target	NP40-soluble protein abundance (concentration: 0.1mM)	NP40-soluble protein abundance (concentration: 0.5mM)
CEP55 (UniProt Q53EZ4)	0.969 ± 0.027	0.991 ± 0.045
UniProt Q15750 and related entries	1.01 ± 0.055	1 ± 0.03
LGALSL (UniProt Q3ZCW2)	1.02 ± 0.031	1.01 ± 0.022
UniProt Q15633 and related entries	0.945 ± 0.022	0.968 ± 0.011
UniProt Q16659	1.01 ± 0.035	1.01 ± 0.015
Q5TBH9 and related entries (UniProt Q8NDD1)	1 ± 0.029	1.01 ± 0.051
PUS10 (UniProt Q3MIT2)	1.01 ± 0.015	0.987 ± 0.036
UniProt Q16531 and related entries	1.02 ± 0.048	0.985 ± 0.11
UniProt Q15223	0.989 ± 0.037	1.01 ± 0.038
NSDHL (UniProt Q15738)	0.993 ± 0.026	0.98 ± 0.031
UniProt Q460N5 and related entries	1.01 ± 0.029	0.977 ± 0.02
TBCC (UniProt Q15814)	0.996 ± 0.012	1 ± 0.04
SAMD9 (UniProt Q5K651)	1.02 ± 0.039	0.98 ± 0.052
RCN1 (UniProt Q15293)	0.993 ± 0.03	1.02 ± 0.014
UniProt Q4KMQ2 and related entries	0.986 ± 0.036	0.9866 ± 0.0064
UniProt Q3V6T2 and related entries	1.01 ± 0.022	0.982 ± 0.043
UniProt Q5SGD2 and related entries	1.031 ± 0.0056	1.02 ± 0.017
UniProt Q16611 and related entries	1 ± 0.036	0.962 ± 0.059
C2orf76 (UniProt Q3KRA6)	0.99 ± 0.042	0.98 ± 0.017
UniProt Q5TKA1 and related entries	0.992 ± 0.02	1.01 ± 0.04
Q59H18-1|Q59H18-3|Q59H18-4|V9GXZ4 (UniProt V9GXZ4+Q59H18)	1.06 ± 0.055	0.963 ± 0.034

Looked up one by one from the list above, two records:
Target	NP40-soluble protein abundance (concentration: 0.1mM)	NP40-soluble protein abundance (concentration: 0.5mM)
Q5TBH9 and related entries (UniProt Q8NDD1)	1 ± 0.029	1.01 ± 0.051
UniProt Q460N5 and related entries	1.01 ± 0.029	0.977 ± 0.02
